From patent US20230151110A1 (HUTCHISON MEDIPHARMA, published 2023)
No constants are given. Whether binding was seen depends on the method and setting. Some entries that bind do so weakly or less than the wild type.

Molecular target: CD47 on the surface of cynomolgus monkey B cells (cynomolgus monkey)
Assay: FACS on cynomolgus monkey B cells

Binder	binding
Hu-125G4A4m-43 (antibody, V domains shown, Humanized antibody, IgG4 S228P (IgG4P) subtype) VH: QVQLVQSGAEVKKPGSSVKVSCKASGYTFTSYYMHWVRQAPGQGLEWMGYIDPANDYSDYNQNFKDRVTITADKSTRTTYMELTSLRSEDTAVYYCARLGYGQSSPFDYWGQGTTVTVSS VL: DIQMTQSPSSLSASVGDRVTITCKASQDIHNYLSWFQQKPGKAPKSLIYRAKRLVEGVPSRFSGSGSGQDYTLTISSLQPEDFATYYCLQYDELYTFGQGTRLEIK	binds
Hu-125G4A4m-45 (antibody, V domains shown, Humanized antibody, IgG4 S228P (IgG4P) subtype) VH: QVQLVQSGAEVKKPGSSVKVSCKASGYTFTSYYMHWVRQAPGQGLEWMGYIDPANDYSDYNQNFKDRVTITADKSTRTAYMELTSLRSEDTAVYYCARLGYGQSSPFDYWGQGTTVTVSS VL: DIQMTQSPSSLSASVGDRVTITCKASQDIHNYLSWFQQKPGKAPKSLIYRAKRLVEGVPSRFSGSGSGTDYTLTISSLQPEDFATYYCLQYDELYTFGQGTRLEIK	binds
Hu-125G4A4m-44 (antibody, V domains shown, Humanized antibody, IgG4 S228P (IgG4P) subtype) VH: QVQLVQSGAEVKKPGSSVKVSCKASGYTFTSYYMHWVRQAPGQGLEWMGYIDPANDYSDYNQNFKDRVTITADKSTRTTYMELTSLRSEDTAVYYCARLGYGQSSPFDYWGQGTTVTVSS VL: DIKMTQSPSSLSASVGDRVTITCKASQDIHNYLSWFQQKPGKAPKTLIYRAKRLVEGVPLRFSGSGSGQDYTLTISSLQPEDFATYFCLQYDELYTFGQGTRLEIK	binds
Hu-125G4A4m-46 (antibody, V domains shown, Humanized antibody, IgG4 S228P (IgG4P) subtype) VH: QVQLVQSGAEVKKPGSSVKVSCKASGYTFTSYYMHWVRQAPGQGLEWMGYIDPANDYSDYNQNFKDRVTITADKSTRTAYMELTSLRSEDTAVYYCARLGYGQSSPFDYWGQGTTVTVSS VL: DIQMTQSPSSLSASVGDRVTITCKASQDIHNYLSWFQQKPGKAPKSLIYRAKRLVEGVPSRFSGSGSGQDYTLTISSLQPEDFATYYCLQYDELYTFGQGTRLEIK	binds

Further lines, results first:

binding	Binder
binds	humanized antibody HMA02h14-48 (antibody, V domains shown, Humanized antibody, IgG4 S228P (IgG4P) subtype; also called Hu-125G4A4m-48; Hu-125G4A4-48) VH: QVQLVQSGAEVKKPGSSVKVSCKASGYTFTSYYMHWVRQAPGQGLEWMGYIDPANDYSDYNQNFKDRATLTADKSTRTTYMELTSLRSEDTAVYYCARLGYGQSSPFDYWGQGTTVTVSS VL: DIQMTQSPSSLSASVGDRVTITCKASQDIHNYLSWFQQKPGKAPKSLIYRAKRLVEGVPSRFSGSGSGTDYTLTISSLQPEDFATYYCLQYDELYTFGQGTRLEIK
binds	Hu-125G4A4m-47 (antibody, V domains shown, Humanized antibody, IgG4 S228P (IgG4P) subtype) VH: QVQLVQSGAEVKKPGSSVKVSCKASGYTFTSYYMHWVRQAPGQGLEWMGYIDPANDYSDYNQNFKDRVTITADKSTRTAYMELTSLRSEDTAVYYCARLGYGQSSPFDYWGQGTTVTVSS VL: DIKMTQSPSSLSASVGDRVTITCKASQDIHNYLSWFQQKPGKAPKTLIYRAKRLVEGVPLRFSGSGSGQDYTLTISSLQPEDFATYFCLQYDELYTFGQGTRLEIK
binds	Hu-125G4A4m-49 (antibody, V domains shown, Humanized antibody, IgG4 S228P (IgG4P) subtype) VH: QVQLVQSGAEVKKPGSSVKVSCKASGYTFTSYYMHWVRQAPGQGLEWMGYIDPANDYSDYNQNFKDRATLTADKSTRTTYMELTSLRSEDTAVYYCARLGYGQSSPFDYWGQGTTVTVSS VL: DIQMTQSPSSLSASVGDRVTITCKASQDIHNYLSWFQQKPGKAPKSLIYRAKRLVEGVPSRFSGSGSGQDYTLTISSLQPEDFATYYCLQYDELYTFGQGTRLEIK
binds	Hu-125G4A4m-50 (antibody, V domains shown, Humanized antibody, IgG4 S228P (IgG4P) subtype) VH: QVQLVQSGAEVKKPGSSVKVSCKASGYTFTSYYMHWVRQAPGQGLEWMGYIDPANDYSDYNQNFKDRATLTADKSTRTTYMELTSLRSEDTAVYYCARLGYGQSSPFDYWGQGTTVTVSS VL: DIKMTQSPSSLSASVGDRVTITCKASQDIHNYLSWFQQKPGKAPKTLIYRAKRLVEGVPLRFSGSGSGQDYTLTISSLQPEDFATYFCLQYDELYTFGQGTRLEIK
